Earlier results in patent US4252956A, “Derivatives of 1,4-dihydropyridine-3-carbothiol acids” (priority 1979, dated 1981).

Settings: in vivo; cited from earlier work

## COC(=O)C1=C(C)NC(C)=C(C(=O)OC)C1c1ccccc1[N+](=O)[O-] [2,6-dimethyl-3,5-dicarbometh-oxy-4-o-nitrophenyl-1,4-dihydropyridine]
  toxicity (prior art): relatively toxic
